Patent publication US11752115B2, “PPAR-alpha agonist treatment of neuropsychiatric disorders” (THE BOARD OF TRUSTEES OF THE UNIVERSITY OF ILLINOIS, priority 2017, dated 2023)
Values joined by “and” are separate entries in the source; they are usually repeats but may differ in a detail not shown here. Equal entries are not always repeated. Where two headings read alike, the source gives them in different places.

System: early and late adolescent SI mice
Conditions: for EC50 dose, reduction of aggression: i.p., 60 min before test
[1] = 0.375 mg, reduction of attacks less than 30% vs basal

## CNCC[C@H](Oc1ccc(C(F)(F)F)cc1)c1ccccc1 [S-FLX, S-fluoxetine]
[1]
  “Non-responders” Early SI mice (%): 64.3%
  “Non-responders” Late SI mice (%): 64.3%
0.75 mg
  “Non-responders” Early SI mice (%): 53.3%
  “Non-responders” Late SI mice (%): 23.1%
1.5 mg
  “Non-responders” Early SI mice (%): 22.22% and 22.2%
  “Non-responders” Late SI mice (%): 11.64% and 11.8%
1.5 mg/kg, late vs early SI mice
  potency in late than early SI mice: +316%
Early adolescent SI mice (PND 21)
  EC50 dose, reduction of aggression: > 1.5 mg/kg
Late adolescent SI mice (PND 45)
  EC50 dose, reduction of aggression: 0.85 mg/kg
